Results on 2 sequences are retold here after paper PMC5964235, “rbFOX1/MBNL1 competition for CCUG RNA repeats binding contributes to myotonic dystrophy type 1/type 2 differences”.

Construct, isoform or probe ends are uncertain for at least one entry. At least one result comes from cells or an extract, where the contact may be indirect. For some of these results: Negatives hold for the conditions tested. Tags and fusion partners may be left off the protein sequences shown.

In series [1] the target is T1, Mbnl1 (mouse brain) (Mus musculus (C57/BL6)) (UniProt Q9JKP5).
T1 sequence (looked up, limits assumed): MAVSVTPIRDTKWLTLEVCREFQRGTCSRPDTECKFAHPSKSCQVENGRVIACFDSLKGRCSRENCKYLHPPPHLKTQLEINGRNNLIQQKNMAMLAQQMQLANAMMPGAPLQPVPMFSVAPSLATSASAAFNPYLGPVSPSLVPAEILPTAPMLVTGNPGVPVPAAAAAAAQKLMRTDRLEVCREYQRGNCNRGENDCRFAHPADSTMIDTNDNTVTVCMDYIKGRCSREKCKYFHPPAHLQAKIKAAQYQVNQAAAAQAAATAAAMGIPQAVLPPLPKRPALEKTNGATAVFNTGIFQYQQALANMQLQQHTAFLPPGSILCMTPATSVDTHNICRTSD
Briefly: pull-down, western blot. The settings on record: 300 mM NaCl, 2 mM MgCl2; protein in an extract; label: biotin. A general note: A western blot detects proteins with antibodies after separation by electrophoresis.

The target of series [2] is T2, rbFox1 (mouse brain) (Mus musculus (C57/BL6)) (UniProt Q9JJ43).
T2 sequence (looked up, limits assumed): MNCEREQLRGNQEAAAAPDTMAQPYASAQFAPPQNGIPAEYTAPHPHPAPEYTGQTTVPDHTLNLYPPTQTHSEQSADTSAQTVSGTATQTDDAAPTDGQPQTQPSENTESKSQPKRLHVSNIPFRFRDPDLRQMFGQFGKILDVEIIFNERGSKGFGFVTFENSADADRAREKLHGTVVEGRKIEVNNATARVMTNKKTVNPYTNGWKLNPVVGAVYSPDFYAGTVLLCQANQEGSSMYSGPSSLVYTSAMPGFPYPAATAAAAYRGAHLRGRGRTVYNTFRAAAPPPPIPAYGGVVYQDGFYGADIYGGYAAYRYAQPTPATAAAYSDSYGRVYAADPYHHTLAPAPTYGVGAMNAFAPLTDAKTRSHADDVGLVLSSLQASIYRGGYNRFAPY
The series can be described thus: pull-down, western blot. The conditions noted are these: 300 mM NaCl, 2 mM MgCl2; protein in an extract; label: biotin.

As for “CCUGCCUGCCUGCCUGCCUGCCUGCCUGCCUGCCUGCCUGCCUGCCUGCCUGCCUGCCUGCCUGCCUGCCUGCCUGCCUGCCUGCCUGCCUGCCUGCCUGCCUGCCUGCCUGCCUGCCUG [biotin-(CCUG)30]”, the binding result in series [1] and in series [2] was “binds” each time.

Regarding “CUGCUGCUGCUGCUGCUGCUGCUGCUGCUGCUGCUGCUGCUGCUGCUGCUGCUGCUGCUGCUGCUGCUGCUGCUGCUGCUGCUGCUGCUG [biotin-(CUG)30]”, the binding result is on record as “binds” in series [1] and “no binding” in series [2].
